Numbering of substitutions follows the chain as printed. Results are given in words; binding and its absence hold for the method and conditions named. In cells and extracts the contact can be indirect. These calls come from enrichment with a bait or labelling near it, and not all partners need be listed. For part of these data: No binding means not detected with the bait. For part of these data: Where a sequence is shown, tags or fusion partners need not be part of it. Values belong to the molecule of their own block, whether it stands above or below them.
Assays:
Experiment in all cases: affinity purification with mass spectrometry
[1] = target: T1, Rpb4 E19-21Q, TAP-tagged (S. cerevisiae) (UniProt P20433)
T1 sequence: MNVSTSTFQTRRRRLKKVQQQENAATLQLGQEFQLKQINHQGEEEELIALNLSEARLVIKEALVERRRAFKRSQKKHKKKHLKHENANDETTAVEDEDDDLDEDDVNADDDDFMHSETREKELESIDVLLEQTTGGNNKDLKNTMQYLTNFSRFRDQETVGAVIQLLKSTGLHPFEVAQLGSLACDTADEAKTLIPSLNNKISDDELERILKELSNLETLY

Sequences of proteins named here, by UniProt entry; tags and fusion partners are left off.
UniProt Q08920: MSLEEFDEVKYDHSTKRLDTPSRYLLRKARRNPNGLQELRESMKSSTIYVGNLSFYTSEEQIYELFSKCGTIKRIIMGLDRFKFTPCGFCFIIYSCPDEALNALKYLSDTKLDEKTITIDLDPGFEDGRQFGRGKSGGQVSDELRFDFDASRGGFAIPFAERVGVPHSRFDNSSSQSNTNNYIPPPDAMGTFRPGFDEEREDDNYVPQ

Rpb4-TAP (S. cerevisiae) = target: T2, Rpb4-TAP (S. cerevisiae) (UniProt P20433)
T2 sequence: T1 sequence with Q19E, Q20E, Q21E

[2] = target: T3, Rpb4 E19-22Q, TAP-tagged (S. cerevisiae) (UniProt P20433)
T3 sequence: T1 sequence with E22Q

[3] = target: T4, Rpb4 E19-22D, TAP-tagged (S. cerevisiae) (UniProt P20433)
T4 sequence: T1 sequence with Q19D, Q20D, Q21D, E22D

[4] = target: T5, Rpb4-TAP (S. cerevisiae), P20433; conditions: remark: other sources report otherwise
T5 chain: T1 sequence with Q19E, Q20E, Q21E

Molecule: Cbc2 (from UniProt Q08920 1-208)
- binding [1]: binds
- binding (Rpb4-TAP (S. cerevisiae)): binds

B3: Ccr4, P31384 1-837 (protein)
chain: MNDPSLLGYPNVGPQQQQQQQQQQHAGLLGKGTPNALQQQLHMNQLTGIPPPGLMNNSDVHTSSNNNSRQLLDQLANGNANMLNMNMDNNNNNNNNNNNNNNNGGGSGVMMNASTAAVNSIGMVPTVGTPVNINVNASNPLLHPHLDDPSLLNNPIWKLQLHLAAVSAQSLGQPNIYARQNAMKKYLATQQAQQAQQQAQQQAQQQVPGPFGPGPQAAPPALQPTDFQQSHIAEASKSLVDCTKQALMEMADTLTDSKTAKKQQPTGDSTPSGTATNSAVSTPLTPKIELFANGKDEANQALLQHKKLSQYSIDEDDDIENRMVMPKDSKYDDQLWHALDLSNLQIFNISANIFKYDFLTRLYLNGNSLTELPAEIKNLSNLRVLDLSHNRLTSLPAELGSCFQLKYFYFFDNMVTTLPWEFGNLCNLQFLGVEGNPLEKQFLKILTEKSVTGLIFYLRDNRPEIPLPHERRFIEINTDGEPQREYDSLQQSTEHLATDLAKRTFTVLSYNTLCQHYATPKMYRYTPSWALSWDYRRNKLKEQILSYDSDLLCLQEVESKTFEEYWVPLLDKHGYTGIFHAKARAKTMHSKDSKKVDGCCIFFKRDQFKLITKDAMDFSGAWMKHKKFQRTEDYLNRAMNKDNVALFLKLQHIPSGDTIWAVTTHLHWDPKFNDVKTFQVGVLLDHLETLLKEETSHNFRQDIKKFPVLICGDFNSYINSAVYELINTGRVQIHQEGNGRDFGYMSEKNFSHNLALKSSYNCIGELPFTNFTPSFTDVIDYIWFSTHALRVRGLLGEVDPEYVSKFIGFPNDKFPSDHIPLLARFEFMKTNTGSKKV
- binding [4]: no binding

Further lines, results first:

- binding (Rpb4-TAP (S. cerevisiae)): no binding
- binding [2]: binds
B1: Myo5 (protein, UniProt Q04439 1-1219)
chain: MAILKRGARKKVHQEPAKRSANIKKATFDSSKKKEVGVSDLTLLSKISDEAINENLKKRFLNATIYTYIGHVLISVNPFRDLGIYTDAVMNEYKGKNRLEVPPHVFAIAESMYYNMKSYNENQCVIISGESGAGKTEAAKRIMQYIAAASSTHTESIGKIKDMVLATNPLLESFGCAKTLRNNNSSRHGKYLEIKFNNQFEPCAGNITNYLLEKQRVVSQIKNERNFHIFYQFTKGASDAYRQTFGVQKPEQYVYTAAAGCISAETIDDLQDYQETLKAMRVIGLGQEEQDQIFRMLAAILWIGNVSFIENEEGNAQVRDTSVTDFVAYLLQIDSQLLIKSLVERIMETNHGMKRGSVYHVPLNIVQADAVRDALAKAIYNNLFDWIVSRVNKSLQAFPGAEKSIGILDIYGFEIFEHNSFEQICINYVNEKLQQIFIQLTLKSEQETYEREKIQWTPIKYFDNKVVCDLIEARRPPGIFAAMNDSVATAHADSNAADQAFAQRLNLFTTNPHFDLRSNKFVIKHYAGDVTYDIDGITDKNKDQLQKDLVELIGTTTNTFLATIFPDTVDRESKRRPPTAGDKIIKSANDLVETLSKAQPSYIRTIKPNETKSPNDYDDRQVLHQIKYLGLQENVRIRRAGFAYRQVFEKFVERFYLLSPHCSYAGDYTWQGDTLDAVKYILQDSSIPQQEYQLGVTSVFIKTPETLFALEHMRDRYWHNMAARIQRAWRRFLQRRIDAATKIQRTIRERKEGNKYEKLRDYGTKVLGGRKERRSMSLLGYRAFMGDYLSCNESKSKGAYIKRQVSIKEKVIFSIHGEALHTKFGRSAQRLKKTFLLTPTTLYIVGQTLVQNAMTYTQDYKIDVRNIQAVSLTNLQDDWVAIKLASSGQPDPLINTYFKTELITHLKRLNDKIQIKIGSAIEYQKKPGKLHSVKCQINESAPKYGDIYKSSTISVRRGNPPNSQVHKKPRKKSSISSGYHASSSQATRRPVSIAAAQHVPTAPASRHSKKPAPPPPGMQNKAATRRSVPNPASTLTASQSNARPSPPTAATRATPAATPAAAAMGSGRQANIPPPPPPPPPSSKPKEPMFEAAYDFPGSGSPSELPLKKGDVIYITREEPSGWSLGKLLDGSKEGWVPTAYMKPHSGNNNIPTPPQNRDVPKPVLNSVQHDNTSANVIPAAAQASLGDGLANALAARANKMRLESDDEEANEDEEEDDW

- binding [1]: binds
- binding [3]: binds
- binding (Rpb4-TAP (S. cerevisiae)): binds
- binding [2]: binds
B2: Rtt103 (protein, UniProt Q05543 1-409)
chain: MPFSSEQFTTKLNTLEDSQESISSASKWLLLQYRDAPKVAEMWKEYMLRPSVNTRRKLLGLYLMNHVVQQAKGQKIIQFQDSFGKVAAEVLGRINQEFPRDLKKKLSRVVNILKERNIFSKQVVNDIERSLKTESSPVEALVLPQKLKDFAKDYEKLVKMHHNVCAMKMRFDKSSDELDPSSSVYEENFKTISKIGNMAKDIINESILKRESGIHKLQSTLDDEKRHLDEEQNMLSEIEFVLSAKDPSRLNKNVDEDNIIPTYEVGDGDDDDDDGDNDDDDDDDDDDKNYDDRSNDSNYGVTNISTTDKKNEVVEKTDSEHKNSTHNPSDNQFGMKRTHDMIGHDDANDIPEKKVHLDSKTSEDGTFNSEDGHYELDIEGHVGAQTDEGVENSGGVSSSIQDLLSKLAN

From article doi:10.1101/798603
